According to the supplement of paper PMC10849652:
Some of the results follow.

Amino acid sequences for entries named in this document (tags omitted). A change or cut given only in a name is not applied to a line headed by its entry.
UniProt Q9ULT0: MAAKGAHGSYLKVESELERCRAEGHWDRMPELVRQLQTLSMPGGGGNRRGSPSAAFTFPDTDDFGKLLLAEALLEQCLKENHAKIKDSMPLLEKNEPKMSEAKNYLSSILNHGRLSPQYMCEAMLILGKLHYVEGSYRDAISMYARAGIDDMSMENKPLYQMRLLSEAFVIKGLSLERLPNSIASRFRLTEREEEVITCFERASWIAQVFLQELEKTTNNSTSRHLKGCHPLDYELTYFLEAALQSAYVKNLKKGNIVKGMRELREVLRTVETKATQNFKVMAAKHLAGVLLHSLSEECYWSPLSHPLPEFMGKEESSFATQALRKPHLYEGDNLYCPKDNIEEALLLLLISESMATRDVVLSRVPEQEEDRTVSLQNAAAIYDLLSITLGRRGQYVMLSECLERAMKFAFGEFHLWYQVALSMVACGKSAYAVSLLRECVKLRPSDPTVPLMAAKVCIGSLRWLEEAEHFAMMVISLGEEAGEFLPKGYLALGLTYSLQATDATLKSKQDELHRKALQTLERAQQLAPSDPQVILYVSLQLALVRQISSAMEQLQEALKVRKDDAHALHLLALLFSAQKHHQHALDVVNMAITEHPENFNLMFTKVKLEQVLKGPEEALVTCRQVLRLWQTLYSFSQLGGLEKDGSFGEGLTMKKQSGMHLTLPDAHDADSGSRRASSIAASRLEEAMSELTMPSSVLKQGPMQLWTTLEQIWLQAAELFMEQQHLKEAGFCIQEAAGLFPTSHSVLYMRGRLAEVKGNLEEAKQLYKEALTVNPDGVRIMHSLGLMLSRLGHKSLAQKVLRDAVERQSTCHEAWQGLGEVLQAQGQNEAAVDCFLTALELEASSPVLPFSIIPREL
UniProt P14373: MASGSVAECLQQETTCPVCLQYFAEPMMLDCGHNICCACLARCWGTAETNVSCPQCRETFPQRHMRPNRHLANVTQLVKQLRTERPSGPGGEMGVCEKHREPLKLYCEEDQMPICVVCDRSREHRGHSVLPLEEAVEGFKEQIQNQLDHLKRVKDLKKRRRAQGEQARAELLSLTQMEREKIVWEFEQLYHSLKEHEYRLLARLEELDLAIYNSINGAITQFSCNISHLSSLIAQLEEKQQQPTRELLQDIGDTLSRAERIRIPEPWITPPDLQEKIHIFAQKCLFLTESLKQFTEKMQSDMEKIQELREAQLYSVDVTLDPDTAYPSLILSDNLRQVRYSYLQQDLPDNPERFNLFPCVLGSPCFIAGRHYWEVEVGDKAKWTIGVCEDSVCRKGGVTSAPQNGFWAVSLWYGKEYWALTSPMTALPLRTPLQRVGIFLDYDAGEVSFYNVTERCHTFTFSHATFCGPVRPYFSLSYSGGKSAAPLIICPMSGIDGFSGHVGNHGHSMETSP
UniProt Q8TD43: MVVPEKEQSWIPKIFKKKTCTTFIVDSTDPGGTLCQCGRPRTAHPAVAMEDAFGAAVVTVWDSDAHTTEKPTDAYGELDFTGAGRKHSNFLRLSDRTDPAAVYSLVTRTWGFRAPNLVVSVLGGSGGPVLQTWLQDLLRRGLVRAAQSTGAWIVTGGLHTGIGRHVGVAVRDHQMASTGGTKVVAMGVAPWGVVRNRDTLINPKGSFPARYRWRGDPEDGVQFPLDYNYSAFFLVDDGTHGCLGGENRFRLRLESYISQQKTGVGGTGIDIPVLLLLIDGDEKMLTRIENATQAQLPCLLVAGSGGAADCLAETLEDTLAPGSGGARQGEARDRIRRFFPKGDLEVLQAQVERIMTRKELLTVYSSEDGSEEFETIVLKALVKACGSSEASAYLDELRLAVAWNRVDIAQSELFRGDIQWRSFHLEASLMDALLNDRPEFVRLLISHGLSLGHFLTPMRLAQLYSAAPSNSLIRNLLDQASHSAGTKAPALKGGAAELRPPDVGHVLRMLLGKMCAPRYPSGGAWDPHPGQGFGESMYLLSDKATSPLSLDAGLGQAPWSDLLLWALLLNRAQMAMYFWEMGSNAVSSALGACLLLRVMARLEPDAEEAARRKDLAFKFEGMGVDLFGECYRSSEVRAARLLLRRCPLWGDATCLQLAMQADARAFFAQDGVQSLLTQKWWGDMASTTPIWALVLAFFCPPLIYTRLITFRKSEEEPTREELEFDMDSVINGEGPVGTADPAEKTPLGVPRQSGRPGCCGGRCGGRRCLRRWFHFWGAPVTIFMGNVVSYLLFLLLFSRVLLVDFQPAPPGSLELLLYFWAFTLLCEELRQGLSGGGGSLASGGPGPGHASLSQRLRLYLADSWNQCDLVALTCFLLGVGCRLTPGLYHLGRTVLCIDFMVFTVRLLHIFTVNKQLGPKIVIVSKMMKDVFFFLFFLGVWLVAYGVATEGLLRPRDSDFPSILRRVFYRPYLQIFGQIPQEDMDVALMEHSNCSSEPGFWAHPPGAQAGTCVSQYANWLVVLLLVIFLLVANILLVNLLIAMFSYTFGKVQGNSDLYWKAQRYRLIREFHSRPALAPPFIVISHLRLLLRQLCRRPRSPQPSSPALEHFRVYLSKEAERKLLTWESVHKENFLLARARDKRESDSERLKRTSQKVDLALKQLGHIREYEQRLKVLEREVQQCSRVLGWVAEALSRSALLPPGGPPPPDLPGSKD
UniProt Q96RU7: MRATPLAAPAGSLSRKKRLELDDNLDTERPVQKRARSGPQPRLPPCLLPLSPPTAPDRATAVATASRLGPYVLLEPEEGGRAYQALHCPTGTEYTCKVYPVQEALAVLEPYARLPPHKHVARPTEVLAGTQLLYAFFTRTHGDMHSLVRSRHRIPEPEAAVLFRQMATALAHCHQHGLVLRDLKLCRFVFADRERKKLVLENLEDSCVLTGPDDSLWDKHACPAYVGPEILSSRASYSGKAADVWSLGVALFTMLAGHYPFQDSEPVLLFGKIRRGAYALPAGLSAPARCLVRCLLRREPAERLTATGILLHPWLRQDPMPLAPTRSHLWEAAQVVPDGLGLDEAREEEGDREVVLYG
UniProt Q9BU70: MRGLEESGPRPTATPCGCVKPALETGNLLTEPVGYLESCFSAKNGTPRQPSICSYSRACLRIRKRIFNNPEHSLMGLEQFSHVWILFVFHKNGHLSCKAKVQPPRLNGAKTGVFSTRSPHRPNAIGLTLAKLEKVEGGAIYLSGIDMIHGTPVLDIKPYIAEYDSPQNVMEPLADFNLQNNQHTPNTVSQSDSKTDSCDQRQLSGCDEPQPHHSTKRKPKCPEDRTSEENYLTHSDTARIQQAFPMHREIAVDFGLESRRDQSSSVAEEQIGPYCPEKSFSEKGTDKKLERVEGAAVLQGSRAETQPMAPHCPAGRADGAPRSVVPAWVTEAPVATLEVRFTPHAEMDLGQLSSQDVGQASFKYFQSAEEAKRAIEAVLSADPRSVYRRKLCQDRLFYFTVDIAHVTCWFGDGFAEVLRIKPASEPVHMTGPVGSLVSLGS
UniProt O95900: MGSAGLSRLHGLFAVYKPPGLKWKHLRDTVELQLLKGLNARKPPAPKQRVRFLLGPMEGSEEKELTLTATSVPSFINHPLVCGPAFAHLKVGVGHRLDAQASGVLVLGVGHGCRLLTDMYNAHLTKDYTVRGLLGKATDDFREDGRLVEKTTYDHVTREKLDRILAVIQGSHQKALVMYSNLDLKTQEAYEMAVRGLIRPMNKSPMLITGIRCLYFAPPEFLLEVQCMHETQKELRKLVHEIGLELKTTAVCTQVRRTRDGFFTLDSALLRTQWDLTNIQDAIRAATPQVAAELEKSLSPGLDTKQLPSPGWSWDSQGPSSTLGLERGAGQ
UniProt O94972: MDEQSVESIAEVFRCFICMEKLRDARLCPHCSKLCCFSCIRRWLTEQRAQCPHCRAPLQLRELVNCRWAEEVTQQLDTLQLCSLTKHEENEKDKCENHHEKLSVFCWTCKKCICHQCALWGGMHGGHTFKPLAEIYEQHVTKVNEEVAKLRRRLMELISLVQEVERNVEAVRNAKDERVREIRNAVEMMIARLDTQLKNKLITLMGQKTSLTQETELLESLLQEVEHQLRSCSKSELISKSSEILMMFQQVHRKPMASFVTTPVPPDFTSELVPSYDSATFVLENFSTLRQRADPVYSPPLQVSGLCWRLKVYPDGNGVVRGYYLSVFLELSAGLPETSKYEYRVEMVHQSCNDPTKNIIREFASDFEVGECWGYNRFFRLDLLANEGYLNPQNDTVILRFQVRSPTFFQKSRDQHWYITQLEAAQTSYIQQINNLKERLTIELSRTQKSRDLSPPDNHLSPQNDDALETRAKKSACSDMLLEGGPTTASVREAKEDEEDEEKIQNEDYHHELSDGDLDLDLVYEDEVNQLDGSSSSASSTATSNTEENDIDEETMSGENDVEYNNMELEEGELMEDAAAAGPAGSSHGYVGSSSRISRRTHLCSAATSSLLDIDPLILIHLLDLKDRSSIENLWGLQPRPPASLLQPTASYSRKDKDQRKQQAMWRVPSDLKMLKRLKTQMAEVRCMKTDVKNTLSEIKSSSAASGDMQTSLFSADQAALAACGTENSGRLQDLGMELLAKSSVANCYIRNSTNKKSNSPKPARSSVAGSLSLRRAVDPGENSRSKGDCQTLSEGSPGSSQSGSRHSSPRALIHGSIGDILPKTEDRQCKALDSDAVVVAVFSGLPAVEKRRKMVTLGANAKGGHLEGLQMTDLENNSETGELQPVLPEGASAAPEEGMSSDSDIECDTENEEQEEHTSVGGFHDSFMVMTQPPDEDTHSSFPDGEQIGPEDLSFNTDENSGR
UniProt Q5VTQ0: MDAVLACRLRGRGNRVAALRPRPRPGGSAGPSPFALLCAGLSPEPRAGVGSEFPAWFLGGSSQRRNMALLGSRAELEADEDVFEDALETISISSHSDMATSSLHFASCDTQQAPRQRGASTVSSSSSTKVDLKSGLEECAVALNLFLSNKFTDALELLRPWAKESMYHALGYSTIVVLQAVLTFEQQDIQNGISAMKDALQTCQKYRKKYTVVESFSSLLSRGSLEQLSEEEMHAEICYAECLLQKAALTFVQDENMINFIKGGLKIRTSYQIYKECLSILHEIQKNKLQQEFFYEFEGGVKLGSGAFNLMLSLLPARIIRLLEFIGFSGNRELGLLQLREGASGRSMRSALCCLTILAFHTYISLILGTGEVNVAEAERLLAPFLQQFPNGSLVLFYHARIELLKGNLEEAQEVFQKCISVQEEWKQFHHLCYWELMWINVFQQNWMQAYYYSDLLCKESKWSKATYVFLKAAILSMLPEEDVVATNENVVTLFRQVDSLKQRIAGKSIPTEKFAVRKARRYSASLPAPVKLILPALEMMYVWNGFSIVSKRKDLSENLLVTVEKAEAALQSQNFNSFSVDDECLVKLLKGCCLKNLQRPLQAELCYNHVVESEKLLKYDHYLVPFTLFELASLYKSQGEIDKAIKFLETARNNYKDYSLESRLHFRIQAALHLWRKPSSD
UniProt Q99576: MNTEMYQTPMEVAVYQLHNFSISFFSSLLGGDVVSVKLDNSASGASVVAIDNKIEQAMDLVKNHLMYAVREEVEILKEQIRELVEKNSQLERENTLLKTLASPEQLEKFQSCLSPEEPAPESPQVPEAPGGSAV
UniProt Q15714: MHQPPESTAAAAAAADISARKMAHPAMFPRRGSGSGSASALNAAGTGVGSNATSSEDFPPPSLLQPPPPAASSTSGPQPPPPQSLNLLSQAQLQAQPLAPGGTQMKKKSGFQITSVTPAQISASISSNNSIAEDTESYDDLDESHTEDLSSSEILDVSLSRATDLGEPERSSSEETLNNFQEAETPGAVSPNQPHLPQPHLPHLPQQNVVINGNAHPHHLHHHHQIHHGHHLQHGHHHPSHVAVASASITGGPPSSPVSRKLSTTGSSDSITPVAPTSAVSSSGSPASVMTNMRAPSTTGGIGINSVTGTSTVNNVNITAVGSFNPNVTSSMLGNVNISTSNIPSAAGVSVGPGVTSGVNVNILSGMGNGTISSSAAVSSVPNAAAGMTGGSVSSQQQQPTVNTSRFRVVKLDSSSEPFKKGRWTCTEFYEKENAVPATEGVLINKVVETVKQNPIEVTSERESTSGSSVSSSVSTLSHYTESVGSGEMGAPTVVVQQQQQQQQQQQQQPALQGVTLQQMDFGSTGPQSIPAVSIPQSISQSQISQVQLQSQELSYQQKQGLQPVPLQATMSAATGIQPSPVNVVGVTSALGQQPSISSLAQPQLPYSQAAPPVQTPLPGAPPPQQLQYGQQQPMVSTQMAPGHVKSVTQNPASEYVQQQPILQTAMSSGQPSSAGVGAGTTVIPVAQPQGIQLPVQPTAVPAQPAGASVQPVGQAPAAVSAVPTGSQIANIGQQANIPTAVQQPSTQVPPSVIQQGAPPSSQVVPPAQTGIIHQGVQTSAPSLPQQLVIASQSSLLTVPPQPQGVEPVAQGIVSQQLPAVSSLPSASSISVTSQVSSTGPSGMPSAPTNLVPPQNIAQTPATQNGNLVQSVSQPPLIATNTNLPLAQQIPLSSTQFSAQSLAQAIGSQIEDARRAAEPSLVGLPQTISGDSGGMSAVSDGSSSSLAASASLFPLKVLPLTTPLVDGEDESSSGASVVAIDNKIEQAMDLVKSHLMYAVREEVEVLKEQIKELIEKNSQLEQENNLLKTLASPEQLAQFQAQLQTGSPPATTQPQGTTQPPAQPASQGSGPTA

Compound: Cc1ncc(-c2ccnc(Nc3ccc(S(C)(=O)=O)cc3)n2)n1C(C)C
Assay: log2 fold change, soluble protein after heating vs DMSO (PISA); higher = thermal stabilisation; K562 lysate, 10 uM; active = over 0.2 and 3.5 SD of the protein, either way, in both replicates (recomputed)
In short: (§1)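 Log-two fold change in thermal stability relative to solvent controls is reported from duplicates. For each sample, crude K562 extract from dounce-homogenised pellets in PBS pH 7.4 with 1 mM MgCl2, at 1 mg/mL protein, was treated with 10 μM compound for 30 min. Aliquots heated for 3 min across 48°C-58°C were pooled, brought to 0.5% NP-40 at 4°C and cleared at 21,000xg for 90 min. The supernatant was quantified by TMTpro 16plex LC-MS/MS with channel sums equalised.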

log2 fold change, inactive:
TTC26 0.246
TTC28 (UniProt Q96AY4) -0.054
TTC3 (UniProt P53804) 0.053
TSPAN3 (UniProt O60637) -0.199
TTC7A isoform 4 (UniProt Q9ULT0) -0.17
TRIM27 (UniProt P14373) 0.104
TRIM26 (UniProt Q12899) -0.155
TTF1 (UniProt Q15361) 0.135
TRIM68 (UniProt Q6AZZ1) 0.023
TTC21B (UniProt Q7Z4L5) -0.02
TTLL4 (UniProt Q14679) 0.077
TSEN15, A0A2U3TZM3 0.32

Compound: Cn1cc(-c2ccc3c(c2)CCN3C(=O)Cc2cccc(C(F)(F)F)c2)c2c(N)ncnc21
Assay: as above
In short: as §1

log2 fold change, inactive:
TRPM4 (UniProt Q8TD43) -0.099
TTC26 0.075
TTC3 (UniProt P53804) 0.073
TSPAN3 (UniProt O60637) 0.033
TRPS1 isoform 2 (UniProt Q9UHF7) -0.106
TRIQK (UniProt Q629K1) 0.225
TRIM41 (UniProt Q8WV44) 0.006
TRIB3 (UniProt Q96RU7) -0.016
TSPYL6 (UniProt Q8N831) 0.039
TRMO (UniProt Q9BU70) 0.055
TSKS (UniProt Q9UJT2) -0.077
TRUB2 (UniProt O95900) 0.043
TRAF3IP1 (UniProt Q8TDR0) 0.128
TRIM16 (UniProt O95361) -0.04
TRIOBP (UniProt Q9H2D6) 0.057
TTC21B (UniProt Q7Z4L5) 0.096
TRIM37 (UniProt O94972) 0.046
TSPAN31 (UniProt Q12999) 0.05
TSEN15, A0A2U3TZM3 0.003
TTC39B (UniProt Q5VTQ0) 0.1

Compound: Cn1cc(CNCC2CCN(c3ncc(C(=O)NO)cn3)CC2)c2ccccc21 [quisinostat]
Assay: as above
In short: as §1

log2 fold change, inactive:
TRPM4 (UniProt Q8TD43) -0.01
TSC22D3 isoform 3 (UniProt Q99576) -0.072
TTLL12 (UniProt V9GY16) -0.436
TSPAN4 (UniProt O14817) 0.066
TTC28 (UniProt Q96AY4) -0.155
TSC22D1 isoform 2 (UniProt Q15714) -0.134
TTC13 (UniProt Q8NBP0) -0.149
TRAM2 (UniProt Q15035) 0.058
TRPS1 isoform 2 (UniProt Q9UHF7) -0.465
TRIQK (UniProt Q629K1) -0.04
TRIM41 (UniProt Q8WV44) -0.041
TRMO (UniProt Q9BU70) -0.047
TSKS (UniProt Q9UJT2) -0.024
TRIM27 (UniProt P14373) -0.015
TRIM26 (UniProt Q12899) -0.002
TTBK2 (UniProt Q6IQ55) 0.007
TTC30B (UniProt Q8N4P2) 0.064
TRAF3IP1 (UniProt Q8TDR0) 0.082
TRMT44 (UniProt Q8IYL2) -0.245
TRIM68 (UniProt Q6AZZ1) -0.642
TRIOBP (UniProt Q9H2D6) 0.004
TRIM37 (UniProt O94972) 0
TSPAN31 (UniProt Q12999) 0.017
